# According to PubChem BioAssay AID1671190 (National Center for Advancing Translational Sciences (NCATS), 2021):
# The chains behind the UniProt entries cited, without tags or fusion partners. Where a name states a change or a piece, a line headed by the entry shows the natural chain unless it says otherwise.
# UniProt P18054: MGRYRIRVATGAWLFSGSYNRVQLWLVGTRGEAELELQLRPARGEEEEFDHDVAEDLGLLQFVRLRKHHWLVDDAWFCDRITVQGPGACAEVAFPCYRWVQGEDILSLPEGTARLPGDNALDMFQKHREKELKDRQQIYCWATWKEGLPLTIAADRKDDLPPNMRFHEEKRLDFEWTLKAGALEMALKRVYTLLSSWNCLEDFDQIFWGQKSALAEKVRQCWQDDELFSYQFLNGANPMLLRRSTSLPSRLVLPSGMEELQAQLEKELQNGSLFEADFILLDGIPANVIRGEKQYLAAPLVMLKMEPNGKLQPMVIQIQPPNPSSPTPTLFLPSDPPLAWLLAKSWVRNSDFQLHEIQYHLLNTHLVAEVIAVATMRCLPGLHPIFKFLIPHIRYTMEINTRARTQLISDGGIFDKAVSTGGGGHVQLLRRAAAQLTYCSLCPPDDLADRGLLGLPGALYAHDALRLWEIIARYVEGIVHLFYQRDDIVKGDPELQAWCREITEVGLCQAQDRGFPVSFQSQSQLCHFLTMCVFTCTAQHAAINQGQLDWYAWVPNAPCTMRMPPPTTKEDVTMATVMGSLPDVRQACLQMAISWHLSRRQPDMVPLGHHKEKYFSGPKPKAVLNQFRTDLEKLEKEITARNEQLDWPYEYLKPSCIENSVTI
# Among all 580,000 compounds or so, about 6,100 (1.1%) were called active. Inconclusive means that the source gave no clear call. Such entries were picked first, then a sample of the others. Calls follow the shape of the dose curve; as a rule, active = well fitted inhibition curve with a large enough effect; inconclusive = small, poorly fitted or top-dose-only effect, or another doubt; inactive = no such curve, though single readings can be large or run the other way. Potencies of inconclusive entries are doubtful fits and often do not repeat.
# Biological target: Polyunsaturated fatty acid lipoxygenase ALOX12 (Homo sapiens) (UniProt P18054)
# Experiment: Primary qHTS assay for inhibitors of human arachidonate 12S-lipoxygenase (ALOX12): Round 2
# Conditions: purified 12hLO, xylenol orange hydroperoxide absorbance; activity change, negative = inhibition: at 108 µM (top of the series) unless noted
# How it was run: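 Purified human 12hLO at 150 nM in 25 mM Hepes, 0.01% Triton X-100, pH 7.0, preincubated 15 min at room temperature with compound. Reaction started with 40 uM arachidonic acid, 30 min at room temperature. Hydroperoxide measured by Fe-xylenol orange, 573/405 nm absorbance ratio.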
# % is scaled to controls: 0 for no effect and ±100 for the full control effect; potency is read from the fitted curve at half-maximal effect.
SMILES,"activity change, negative = inhibition",Potency
O=C(CCc1cccnc1)NC(C1CC1)C1CC1,inactive: -0.382%,
CCC(=O)Nc1sc2c(c1C#N)CCC(C)C2 (stereo not drawn),,"inconclusive: 25.1 µM [inhibitor, partial curve]"
Cc1cccc(N2CCN(C(=O)c3ccc(Cl)c(S(=O)(=O)NCc4ccco4)c3)CC2)c1C,inactive: -4.44%,
CC(C)(C)C(=O)NNc1nc(-c2ccccc2)c2cc(Br)ccc2n1,,"inconclusive: 56.2 µM [inhibitor, partial curve, poor fit]"
Clc1ccc(SCc2nc(NC3CCCc4ccccc43)c3c4c(sc3n2)CCC4)cc1 (stereo not drawn),,"inconclusive: 31.6 µM [inhibitor, partial curve, poor fit]"
CCOC(=O)N1CCC(NC(=O)CCC(=O)N2CC(C)Oc3ccccc32)CC1 (stereo not drawn),,"inconclusive: 126 µM [inhibitor, partial curve, poor fit]"
CCCCNC(=O)CSc1nc2ccc(NC(=O)CSc3nnc(N)s3)cc2s1,inconclusive: -35.3% [inhibitor],
S=c1[nH]nc(-c2ccco2)n1/N=C/c1ccccc1,,"inconclusive: 50.1 µM [inhibitor, partial curve, poor fit]"
COc1ccc(C(=O)Oc2ccccc2Cl)cc1Br,inactive: -2.34%,
Cc1ccccc1S(=O)(=O)N1[C@@H](c2ccccc2)C(C(=O)O)=CC[C@H]1c1ccc(Cl)cc1,,"inconclusive: 50.1 µM [inhibitor, partial curve, poor fit]"
Cc1noc(NS(=O)(=O)c2ccc(NC(=O)c3cc(-c4ccccc4Cl)nc4ccccc34)cc2)c1C,inactive: -14.7%,
COc1cc(/C=C/c2ccc3cccc(O)c3n2)cc(OC)c1OC,,"inconclusive: 35.5 µM [inhibitor, full curve, poor fit]"
CCCCc1cc(=O)oc2cc(OCC(=O)N[C@@H](Cc3ccccc3)C(=O)O)ccc12,,"inconclusive: 50.1 µM [inhibitor, partial curve, poor fit]"
COc1ccc(N2CC(O)(c3ccc(F)cc3)[N+]3=C2CCCC3)cc1 (stereo not drawn),inactive: -3.35%,
COCCNC(=O)CSCc1nc(-c2ccc(OC)c(OC)c2)oc1C,inactive: -6.53%,
COc1cc(C(=O)OCC(=O)c2c[nH]c3ccccc23)ccc1OCC(=O)N1CCOCC1,,"inconclusive: 44.7 µM [inhibitor, partial curve, poor fit]"
COc1ccc(C2=NN(C(=O)C(C)(C)C)C(c3ccc4nccnc4c3)C2)cc1 (stereo not drawn),,"inconclusive: 39.8 µM [inhibitor, single point]"
COc1ccccc1C(=O)NC(CCSC)C(=O)N1CCC(Cc2ccccc2)CC1 (stereo not drawn),,"inconclusive: 44.7 µM [inhibitor, partial curve, poor fit]"
COc1cccc(-c2c(NC(=O)c3ccc([N+](=O)[O-])cc3)oc3ccc(Cl)cc3c2=O)c1,inactive: 1.29%,
O=C(CCCCCCNC(=O)c1cnc(N(c2ccccc2)c2ccccc2)nc1)NO,inactive: -25.9% [at 57.4 µM],
C=CCn1c(O)c(N=NC(=S)Nc2ccc(OC)cc2)c2ccccc21,inactive: 4.5%,
COc1cccc(NC(=O)Cn2cc(C#N)c3cc(Br)ccc32)c1,,"inconclusive: 10 µM [inhibitor, full curve, poor fit]"
CCCCN(C(=O)COC(=O)c1n[nH]c2ccccc12)C1CCS(=O)(=O)C1 (stereo not drawn),,"inconclusive: 112 µM [inhibitor, single point]"

SMILES,"activity change, negative = inhibition",Potency
COc1ccccc1P(=O)(c1ccccc1)c1ccc([N+](=O)[O-])cc1 (stereo not drawn),,"inconclusive: 89.1 µM [inhibitor, partial curve, poor fit]"
COc1ccc(C(=O)N2CCC(N3C(=O)CCC3C(=O)NCc3ccccc3)CC2)cc1 (stereo not drawn),inactive: 43%,
COc1cc(OC)c(OC)cc1/C=C/c1ccnc2ccccc12,,"inconclusive: 158 µM [inhibitor, partial curve, poor fit]"
COc1ccc(NC(=O)COc2ccc(/C=C/c3cc[n+](C)cc3)cc2OC)cc1,,"inconclusive: 15.8 µM [inhibitor, partial curve, poor fit]"
CN(CC(=O)NC(C)(C)C)C(=O)c1cc2cc(Br)ccc2[nH]1,,"inconclusive: 44.7 µM [inhibitor, partial curve, poor fit]"
CN(Cc1ccc(Cl)c(Cl)c1)C(=O)C1=CC=CN2CCS(=O)(=O)N=C12,,"inconclusive: 22.4 µM [inhibitor, partial curve, poor fit]"
CN1CCc2nc(NC(=O)Cn3c(=O)oc4ccccc43)sc2C1,inactive: -45.5%,
COC(=O)[C@H]1CN(C(=O)c2cccnc2)CCN1C(=O)C1CCCCC1,,"inconclusive: 100 µM [inhibitor, partial curve, poor fit]"
CN(C(=O)CSc1nc(CN2CCOCC2)nc2ccccc12)C1CCS(=O)(=O)C1 (stereo not drawn),,"inconclusive: 100 µM [inhibitor, single point]"
Cc1ccc(-n2ncc(C(=O)NCCN3CCN(C)CC3)c2C2CCN(C(=O)OC(C)(C)C)CC2)cc1C,inactive: -14.6%,
Cc1noc(C)c1S(=O)(=O)N1C[C@@H](Oc2ccccc2)C[C@H]1C(=O)N1CCCC1,inactive: -1.58%,
CC(NC(=O)Cc1ccc(N(Cc2cccc(F)c2)C(=O)c2ccco2)cc1)c1ccccc1 (stereo not drawn),inactive: -0.479%,
C/C(CCC(=O)O)=N/Nc1ccc([N+](=O)[O-])cc1[N+](=O)[O-],inactive: -25.3%,
COC(=O)C1=C(C)N(Cc2ccc(C(F)(F)F)cc2)C(=NCC2CC2)NC1c1ccccc1 (stereo not drawn),,"inconclusive: 89.1 µM [inhibitor, single point]"
COc1ccc(-c2cc(NC(C)=O)c3ncc(-c4cc(OC)c(OC)c(OC)c4)n3c2)cn1,,"inconclusive: 50.1 µM [inhibitor, partial curve, poor fit]"
O=C(NC(=S)Nc1ccc2ncccc2c1)c1ccccc1,,"inconclusive: 31.6 µM [inhibitor, partial curve, poor fit]"
CCCN(CCC)C(=O)CC(c1ccc(F)cc1)c1ccco1 (stereo not drawn),inactive: -11.6%,
CC(=O)c1ccc(NC(=O)N[C@@H]2C=C(C(=O)NCCC(N)=O)C[C@@H](O)[C@@H]2O)cc1,inactive: 18.9% [at 176 µM],
NC(=O)c1ccccc1NC(=O)c1cc(=O)c2ccccc2o1,inactive: 5%,
CN1C[C@@H](NC(=O)c2ccc(F)cc2)C[C@H]1c1nc(-c2ccc(Cl)cc2)no1,,"inconclusive: 31.6 µM [inhibitor, full curve, poor fit]"
Cc1ccc(CCNC(=O)C2CC(=O)N(C3CCCCC3)C2)cc1 (stereo not drawn),inactive: 12.7%,
O=C(Nc1ccc(F)cc1)c1cc(-c2ccc[nH]2)n[nH]1,,"inconclusive: 25.1 µM [inhibitor, full curve, poor fit]"
CCOc1ccc(C(=O)/C=C/Nc2ccc(S(=O)(=O)N=C(N)N)cc2)cc1,inactive: -21.6%,

SMILES,"activity change, negative = inhibition",Potency
S=C(Nc1ccccn1)c1ccccn1,,active: 4.47 µM
O=C(NC(=S)NNC(=O)c1ccc(Cl)cc1Cl)c1cccnc1,,"inconclusive: 56.2 µM [inhibitor, partial curve, poor fit]"
CC1(C(=O)NS(=O)(=O)c2cccc(C#N)c2)CCN1C(=O)c1ccco1 (stereo not drawn),,"inconclusive: 12.6 µM [inhibitor, full curve, poor fit]"
CCCCNc1c(-c2cccc(-c3ccc(OC)cc3)c2)nc2ccc(C)cn12,inactive: -20.4%,
CC(C)CN1CCC(NC(=O)Cc2cc(Cl)c3c(c2)OCCO3)CC1,,"inconclusive: 56.2 µM [inhibitor, partial curve, poor fit]"
Cc1ccc(CCN2CC(C(=O)NCCCN3CCCCCC3)CC2=O)cc1 (stereo not drawn),inactive: 46.2%,
CCc1cc2c(SCC(=O)N3CC(=O)Nc4ccccc43)ncnc2s1,inactive: -0.41%,
Oc1ccc(N2CCN(c3ncnc4sc5c(c34)CCC5)CC2)cc1,,"inconclusive: 25.1 µM [inhibitor, partial curve, poor fit]"
CCOc1ccc(CNC(=O)Cn2c(=O)c3cccn3c3cccnc32)cc1,,"inconclusive: 50.1 µM [inhibitor, partial curve, poor fit]"
CCCCCCNC(=O)C(C#N)c1nc2ccccc2nc1N1CCN(c2ccc(F)cc2)CC1 (stereo not drawn),,"inconclusive: 89.1 µM [inhibitor, single point]"
FC(F)(F)c1cccc(Sc2cc(C(F)(F)F)nc(-c3ccccn3)n2)c1,,"inconclusive: 8.91 µM [inhibitor, partial curve, poor fit]"
O=C(CCCN1C(=O)/C(=C\c2ccco2)SC1=S)Nc1cccc2ccccc12,,"inconclusive: 35.5 µM [inhibitor, partial curve]"
Cc1nccc(-c2ccccc2)c1C(=O)N(C)Cc1csc(C(C)C)n1,inactive: 7.01%,
Oc1cc(-c2cccc(Cl)c2)cc2c1OCCN(Cc1noc(C3CC3)n1)C2,,"inconclusive: 44.7 µM [inhibitor, partial curve, poor fit]"
Cc1cccc(-c2cc(C(=O)O)c3ccc(C)c(C)c3n2)c1,,"inconclusive: 4.47 µM [inhibitor, full curve, poor fit]"
O=C(N/N=C/c1cccnc1)c1cc(-c2cccs2)nc2ccccc12,inactive: -0.899%,
COc1ccc(C2NC(=S)NC3=C2CCc2ccccc23)cc1 (stereo not drawn),,active: 39.8 µM
CCOC(=O)C1=CCN(S(=O)(=O)c2ccc(Br)cc2)C1c1cccc(F)c1 (stereo not drawn),,"inconclusive: 141 µM [inhibitor, single point]"
COc1cccc2c(=O)c(SC(F)(F)C(F)C(F)(F)F)c(C)[nH]c12 (stereo not drawn),inactive: -37.1%,
S=C(NNC(=S)Nc1ccc(Cl)cc1)NNc1ccccc1,,active: 44.7 µM
CCOC(=O)N1CCC(N2Cc3cccc(C(=O)Nc4ccccc4OC)c3C2=O)CC1,inactive: -29.1%,
Cc1cc(N2C3CCC2CC(O)(c2ccc(F)cc2)C3)nc(-c2ccccc2)n1 (stereo not drawn),,"inconclusive: 50.1 µM [inhibitor, partial curve, poor fit]"

# Shown as tab-separated lines: part of the list above
SMILES	activity change, negative = inhibition	Potency
CCCCCCNC(=O)C(C#N)c1nc2ccccc2nc1N1CCN(c2ccc(F)cc2)CC1 (stereo not drawn)		inconclusive: 89.1 µM [inhibitor, single point]
FC(F)(F)c1cccc(Sc2cc(C(F)(F)F)nc(-c3ccccn3)n2)c1		inconclusive: 8.91 µM [inhibitor, partial curve, poor fit]
O=C(CCCN1C(=O)/C(=C\c2ccco2)SC1=S)Nc1cccc2ccccc12		inconclusive: 35.5 µM [inhibitor, partial curve]
